# Paper doi:10.1101/2021.01.18.427181
# Target: Toll-9 ectodomain, wild type (etoll-9) (D. melanogaster)
# Experiment: two-hybrid
row,Binder,binding
1,"Toll-1 ectodomain SDM25 (Cys597, Cys635 and Cys637 to Ala) (domain or fragment, UniProt P08953 28-807) SFGRDACSEMSIDGLCQCAPIMSEYEIICPANAENPTFRLTIQPKDYVQIMCNLTDTTDYQQLPKKLRIGEVDRVQMRRCMLPGHTPIASILDYLGIVSPTTLIFESDNLGMNITRQHLDRLHGLKRFRFTTRRLTHIPANLLTDMRNLSHLELRANIEEMPSHLFDDLENLESIEFGSNKLRQMPRGIFGKMPKLKQLNLWSNQLHNLTKHDFEGATSVLGIDIHDNGIEQLPHDVFAHLTNVTDINLSANLFRSLPQGLFDHNKHLNEVRLMNNRVPLATLPSRLFANQPELQILRLRAELQSLPGDLFEHSTQITNISLGDNLLKTLPATLLEHQVNLLSLDLSNNRLTHLPDSLFAHTTNLTDLRLEDNLLTGISGDIFSNLGNLVTLVMSRNRLRTIDSRAFVSTNGLRHLHLDHNDIDLQQPLLDIMLQTQINSPFGYMHGLLTLNLRNNSIIFVYNDWKNTMLQLRELDLSYNNISSLGYEDLAFLSQNRLHVNMTHNKIRRIALPEDVHLGEGYNNNLVHVDLNDNPLVCDCTILWFIQLVRGVHKPQYSRQFKLRTDRLVASQPNVLEGTPVRQIEPQTLICPLDFSDDPRERKCPRGANAHVRTYDKALVINCHSGNLTHVPRLPNLHKNMQLMELHLENNTLLRLPSANTPGYESVTSLHLAGNNLTSIDVDQLPTNLTHLDISWNHLQMLNATVLGFLNRTMKWRSVKLSGNPWMCDCTAKPLLLFTQDNFERIGDRNEMMCVNAEMPTRMVELSTNDICPAEKGVFI",binds
2,"Toll-1 ectodomain SDM3 (Cys618 to Ala) (domain or fragment, UniProt P08953 28-807) SFGRDACSEMSIDGLCQCAPIMSEYEIICPANAENPTFRLTIQPKDYVQIMCNLTDTTDYQQLPKKLRIGEVDRVQMRRCMLPGHTPIASILDYLGIVSPTTLIFESDNLGMNITRQHLDRLHGLKRFRFTTRRLTHIPANLLTDMRNLSHLELRANIEEMPSHLFDDLENLESIEFGSNKLRQMPRGIFGKMPKLKQLNLWSNQLHNLTKHDFEGATSVLGIDIHDNGIEQLPHDVFAHLTNVTDINLSANLFRSLPQGLFDHNKHLNEVRLMNNRVPLATLPSRLFANQPELQILRLRAELQSLPGDLFEHSTQITNISLGDNLLKTLPATLLEHQVNLLSLDLSNNRLTHLPDSLFAHTTNLTDLRLEDNLLTGISGDIFSNLGNLVTLVMSRNRLRTIDSRAFVSTNGLRHLHLDHNDIDLQQPLLDIMLQTQINSPFGYMHGLLTLNLRNNSIIFVYNDWKNTMLQLRELDLSYNNISSLGYEDLAFLSQNRLHVNMTHNKIRRIALPEDVHLGEGYNNNLVHVDLNDNPLVCDCTILWFIQLVRGVHKPQYSRQFKLRTDRLVCSQPNVLEGTPVRQIEPQTLIAPLDFSDDPRERKCPRGCNCHVRTYDKALVINCHSGNLTHVPRLPNLHKNMQLMELHLENNTLLRLPSANTPGYESVTSLHLAGNNLTSIDVDQLPTNLTHLDISWNHLQMLNATVLGFLNRTMKWRSVKLSGNPWMCDCTAKPLLLFTQDNFERIGDRNEMMCVNAEMPTRMVELSTNDICPAEKGVFI",no binding
3,"Toll-1 ectodomain SDM125 (Cys565, Cys567, Cys597, Cys635 and Cys637 to Ala) (domain or fragment, UniProt P08953 28-807) SFGRDACSEMSIDGLCQCAPIMSEYEIICPANAENPTFRLTIQPKDYVQIMCNLTDTTDYQQLPKKLRIGEVDRVQMRRCMLPGHTPIASILDYLGIVSPTTLIFESDNLGMNITRQHLDRLHGLKRFRFTTRRLTHIPANLLTDMRNLSHLELRANIEEMPSHLFDDLENLESIEFGSNKLRQMPRGIFGKMPKLKQLNLWSNQLHNLTKHDFEGATSVLGIDIHDNGIEQLPHDVFAHLTNVTDINLSANLFRSLPQGLFDHNKHLNEVRLMNNRVPLATLPSRLFANQPELQILRLRAELQSLPGDLFEHSTQITNISLGDNLLKTLPATLLEHQVNLLSLDLSNNRLTHLPDSLFAHTTNLTDLRLEDNLLTGISGDIFSNLGNLVTLVMSRNRLRTIDSRAFVSTNGLRHLHLDHNDIDLQQPLLDIMLQTQINSPFGYMHGLLTLNLRNNSIIFVYNDWKNTMLQLRELDLSYNNISSLGYEDLAFLSQNRLHVNMTHNKIRRIALPEDVHLGEGYNNNLVHVDLNDNPLVADATILWFIQLVRGVHKPQYSRQFKLRTDRLVASQPNVLEGTPVRQIEPQTLICPLDFSDDPRERKCPRGANAHVRTYDKALVINCHSGNLTHVPRLPNLHKNMQLMELHLENNTLLRLPSANTPGYESVTSLHLAGNNLTSIDVDQLPTNLTHLDISWNHLQMLNATVLGFLNRTMKWRSVKLSGNPWMCDCTAKPLLLFTQDNFERIGDRNEMMCVNAEMPTRMVELSTNDICPAEKGVFI",no binding
4,"Toll-1 ectodomain SDM 1 (Cys565 and Cys567 to Ala) (domain or fragment, UniProt P08953 28-807) SFGRDACSEMSIDGLCQCAPIMSEYEIICPANAENPTFRLTIQPKDYVQIMCNLTDTTDYQQLPKKLRIGEVDRVQMRRCMLPGHTPIASILDYLGIVSPTTLIFESDNLGMNITRQHLDRLHGLKRFRFTTRRLTHIPANLLTDMRNLSHLELRANIEEMPSHLFDDLENLESIEFGSNKLRQMPRGIFGKMPKLKQLNLWSNQLHNLTKHDFEGATSVLGIDIHDNGIEQLPHDVFAHLTNVTDINLSANLFRSLPQGLFDHNKHLNEVRLMNNRVPLATLPSRLFANQPELQILRLRAELQSLPGDLFEHSTQITNISLGDNLLKTLPATLLEHQVNLLSLDLSNNRLTHLPDSLFAHTTNLTDLRLEDNLLTGISGDIFSNLGNLVTLVMSRNRLRTIDSRAFVSTNGLRHLHLDHNDIDLQQPLLDIMLQTQINSPFGYMHGLLTLNLRNNSIIFVYNDWKNTMLQLRELDLSYNNISSLGYEDLAFLSQNRLHVNMTHNKIRRIALPEDVHLGEGYNNNLVHVDLNDNPLVADATILWFIQLVRGVHKPQYSRQFKLRTDRLVCSQPNVLEGTPVRQIEPQTLICPLDFSDDPRERKCPRGCNCHVRTYDKALVINCHSGNLTHVPRLPNLHKNMQLMELHLENNTLLRLPSANTPGYESVTSLHLAGNNLTSIDVDQLPTNLTHLDISWNHLQMLNATVLGFLNRTMKWRSVKLSGNPWMCDCTAKPLLLFTQDNFERIGDRNEMMCVNAEMPTRMVELSTNDICPAEKGVFI",no binding

# More lines, now with the values ahead:
row,binding,Binder
1,no binding,"Toll-1 ectodomain SDM 5 (Cys635 and Cys637 to Ala) (domain or fragment, UniProt P08953 28-807) SFGRDACSEMSIDGLCQCAPIMSEYEIICPANAENPTFRLTIQPKDYVQIMCNLTDTTDYQQLPKKLRIGEVDRVQMRRCMLPGHTPIASILDYLGIVSPTTLIFESDNLGMNITRQHLDRLHGLKRFRFTTRRLTHIPANLLTDMRNLSHLELRANIEEMPSHLFDDLENLESIEFGSNKLRQMPRGIFGKMPKLKQLNLWSNQLHNLTKHDFEGATSVLGIDIHDNGIEQLPHDVFAHLTNVTDINLSANLFRSLPQGLFDHNKHLNEVRLMNNRVPLATLPSRLFANQPELQILRLRAELQSLPGDLFEHSTQITNISLGDNLLKTLPATLLEHQVNLLSLDLSNNRLTHLPDSLFAHTTNLTDLRLEDNLLTGISGDIFSNLGNLVTLVMSRNRLRTIDSRAFVSTNGLRHLHLDHNDIDLQQPLLDIMLQTQINSPFGYMHGLLTLNLRNNSIIFVYNDWKNTMLQLRELDLSYNNISSLGYEDLAFLSQNRLHVNMTHNKIRRIALPEDVHLGEGYNNNLVHVDLNDNPLVCDCTILWFIQLVRGVHKPQYSRQFKLRTDRLVCSQPNVLEGTPVRQIEPQTLICPLDFSDDPRERKCPRGANAHVRTYDKALVINCHSGNLTHVPRLPNLHKNMQLMELHLENNTLLRLPSANTPGYESVTSLHLAGNNLTSIDVDQLPTNLTHLDISWNHLQMLNATVLGFLNRTMKWRSVKLSGNPWMCDCTAKPLLLFTQDNFERIGDRNEMMCVNAEMPTRMVELSTNDICPAEKGVFI"
2,no binding,"Toll-1 ectodomain SDM 2 (Cys597 to Ala) (domain or fragment, UniProt P08953 28-807) SFGRDACSEMSIDGLCQCAPIMSEYEIICPANAENPTFRLTIQPKDYVQIMCNLTDTTDYQQLPKKLRIGEVDRVQMRRCMLPGHTPIASILDYLGIVSPTTLIFESDNLGMNITRQHLDRLHGLKRFRFTTRRLTHIPANLLTDMRNLSHLELRANIEEMPSHLFDDLENLESIEFGSNKLRQMPRGIFGKMPKLKQLNLWSNQLHNLTKHDFEGATSVLGIDIHDNGIEQLPHDVFAHLTNVTDINLSANLFRSLPQGLFDHNKHLNEVRLMNNRVPLATLPSRLFANQPELQILRLRAELQSLPGDLFEHSTQITNISLGDNLLKTLPATLLEHQVNLLSLDLSNNRLTHLPDSLFAHTTNLTDLRLEDNLLTGISGDIFSNLGNLVTLVMSRNRLRTIDSRAFVSTNGLRHLHLDHNDIDLQQPLLDIMLQTQINSPFGYMHGLLTLNLRNNSIIFVYNDWKNTMLQLRELDLSYNNISSLGYEDLAFLSQNRLHVNMTHNKIRRIALPEDVHLGEGYNNNLVHVDLNDNPLVCDCTILWFIQLVRGVHKPQYSRQFKLRTDRLVASQPNVLEGTPVRQIEPQTLICPLDFSDDPRERKCPRGCNCHVRTYDKALVINCHSGNLTHVPRLPNLHKNMQLMELHLENNTLLRLPSANTPGYESVTSLHLAGNNLTSIDVDQLPTNLTHLDISWNHLQMLNATVLGFLNRTMKWRSVKLSGNPWMCDCTAKPLLLFTQDNFERIGDRNEMMCVNAEMPTRMVELSTNDICPAEKGVFI"
3,no binding,"Toll-1 ectodomain SDM 4 (Cys631 to Ala) (domain or fragment, UniProt P08953 28-807) SFGRDACSEMSIDGLCQCAPIMSEYEIICPANAENPTFRLTIQPKDYVQIMCNLTDTTDYQQLPKKLRIGEVDRVQMRRCMLPGHTPIASILDYLGIVSPTTLIFESDNLGMNITRQHLDRLHGLKRFRFTTRRLTHIPANLLTDMRNLSHLELRANIEEMPSHLFDDLENLESIEFGSNKLRQMPRGIFGKMPKLKQLNLWSNQLHNLTKHDFEGATSVLGIDIHDNGIEQLPHDVFAHLTNVTDINLSANLFRSLPQGLFDHNKHLNEVRLMNNRVPLATLPSRLFANQPELQILRLRAELQSLPGDLFEHSTQITNISLGDNLLKTLPATLLEHQVNLLSLDLSNNRLTHLPDSLFAHTTNLTDLRLEDNLLTGISGDIFSNLGNLVTLVMSRNRLRTIDSRAFVSTNGLRHLHLDHNDIDLQQPLLDIMLQTQINSPFGYMHGLLTLNLRNNSIIFVYNDWKNTMLQLRELDLSYNNISSLGYEDLAFLSQNRLHVNMTHNKIRRIALPEDVHLGEGYNNNLVHVDLNDNPLVCDCTILWFIQLVRGVHKPQYSRQFKLRTDRLVCSQPNVLEGTPVRQIEPQTLICPLDFSDDPRERKAPRGCNCHVRTYDKALVINCHSGNLTHVPRLPNLHKNMQLMELHLENNTLLRLPSANTPGYESVTSLHLAGNNLTSIDVDQLPTNLTHLDISWNHLQMLNATVLGFLNRTMKWRSVKLSGNPWMCDCTAKPLLLFTQDNFERIGDRNEMMCVNAEMPTRMVELSTNDICPAEKGVFI"

# No constants are given. Whether binding was seen depends on the method and setting. Binding calls can cover weak binding; strength is not graded here.
